Data as given in the supplement of paper PMC10849652.
This is one part of the list.

Sequences of proteins named here, by UniProt entry; tags and fusion partners are left off. A change or cut given only in a name is not applied to a line headed by its entry.
UniProt Q15386: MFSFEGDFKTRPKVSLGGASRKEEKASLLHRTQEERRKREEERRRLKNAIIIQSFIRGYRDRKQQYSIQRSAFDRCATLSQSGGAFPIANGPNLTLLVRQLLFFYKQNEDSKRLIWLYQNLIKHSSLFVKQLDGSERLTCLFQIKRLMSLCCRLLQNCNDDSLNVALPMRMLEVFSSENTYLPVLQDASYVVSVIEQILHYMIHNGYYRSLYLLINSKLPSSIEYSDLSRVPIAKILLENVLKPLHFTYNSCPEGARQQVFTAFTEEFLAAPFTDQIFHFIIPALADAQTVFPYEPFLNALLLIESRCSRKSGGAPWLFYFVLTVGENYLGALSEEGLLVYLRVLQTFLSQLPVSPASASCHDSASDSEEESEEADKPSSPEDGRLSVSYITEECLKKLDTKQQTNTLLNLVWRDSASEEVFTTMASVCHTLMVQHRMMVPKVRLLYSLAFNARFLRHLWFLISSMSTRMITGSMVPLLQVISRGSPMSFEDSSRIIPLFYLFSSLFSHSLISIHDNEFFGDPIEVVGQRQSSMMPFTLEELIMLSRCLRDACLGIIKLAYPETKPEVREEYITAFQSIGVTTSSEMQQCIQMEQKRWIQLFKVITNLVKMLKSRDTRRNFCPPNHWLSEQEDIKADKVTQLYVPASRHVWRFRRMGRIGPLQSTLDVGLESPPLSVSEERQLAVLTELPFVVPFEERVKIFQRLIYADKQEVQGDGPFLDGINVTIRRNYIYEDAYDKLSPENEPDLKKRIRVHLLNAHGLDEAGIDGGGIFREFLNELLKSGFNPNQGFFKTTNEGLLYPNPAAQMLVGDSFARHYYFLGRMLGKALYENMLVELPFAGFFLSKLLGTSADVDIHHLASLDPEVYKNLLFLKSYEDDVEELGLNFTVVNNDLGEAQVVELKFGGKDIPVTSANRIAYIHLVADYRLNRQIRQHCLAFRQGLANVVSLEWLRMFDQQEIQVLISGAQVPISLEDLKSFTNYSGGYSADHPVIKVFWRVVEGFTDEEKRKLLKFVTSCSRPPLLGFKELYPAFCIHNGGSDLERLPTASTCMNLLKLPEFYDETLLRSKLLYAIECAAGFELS
UniProt Q9HAU5: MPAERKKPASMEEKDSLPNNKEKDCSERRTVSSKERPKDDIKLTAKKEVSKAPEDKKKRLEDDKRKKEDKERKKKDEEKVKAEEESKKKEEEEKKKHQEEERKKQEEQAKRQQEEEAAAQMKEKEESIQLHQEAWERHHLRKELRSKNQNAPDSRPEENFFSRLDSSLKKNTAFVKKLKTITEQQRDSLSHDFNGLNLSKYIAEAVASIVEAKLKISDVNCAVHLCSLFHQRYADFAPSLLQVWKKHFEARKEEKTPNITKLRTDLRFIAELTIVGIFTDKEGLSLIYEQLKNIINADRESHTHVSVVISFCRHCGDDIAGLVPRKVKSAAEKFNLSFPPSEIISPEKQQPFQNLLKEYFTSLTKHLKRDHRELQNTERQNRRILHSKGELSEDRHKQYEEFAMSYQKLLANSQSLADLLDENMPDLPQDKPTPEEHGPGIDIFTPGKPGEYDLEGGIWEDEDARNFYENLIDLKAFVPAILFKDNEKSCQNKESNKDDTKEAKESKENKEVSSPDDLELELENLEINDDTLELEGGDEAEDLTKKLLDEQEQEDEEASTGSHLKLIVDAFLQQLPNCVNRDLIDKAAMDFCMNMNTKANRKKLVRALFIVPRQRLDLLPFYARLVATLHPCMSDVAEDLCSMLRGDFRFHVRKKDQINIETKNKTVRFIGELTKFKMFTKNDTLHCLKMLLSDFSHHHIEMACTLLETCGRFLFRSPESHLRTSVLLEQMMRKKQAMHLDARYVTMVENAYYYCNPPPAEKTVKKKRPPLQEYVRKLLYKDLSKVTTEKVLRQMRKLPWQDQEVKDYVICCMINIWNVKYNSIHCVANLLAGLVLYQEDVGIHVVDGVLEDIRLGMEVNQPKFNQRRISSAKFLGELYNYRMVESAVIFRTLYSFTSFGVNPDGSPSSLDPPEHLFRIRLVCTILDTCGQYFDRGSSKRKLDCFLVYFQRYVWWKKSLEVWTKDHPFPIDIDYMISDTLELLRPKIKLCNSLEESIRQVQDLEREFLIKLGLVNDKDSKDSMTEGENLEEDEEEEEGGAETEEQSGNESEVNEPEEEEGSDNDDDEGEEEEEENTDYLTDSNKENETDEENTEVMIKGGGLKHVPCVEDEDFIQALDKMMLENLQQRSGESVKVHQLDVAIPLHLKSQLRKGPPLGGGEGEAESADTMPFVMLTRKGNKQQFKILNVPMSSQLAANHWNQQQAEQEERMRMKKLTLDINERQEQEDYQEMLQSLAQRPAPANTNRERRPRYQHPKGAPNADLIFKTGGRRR
UniProt Q9UDW1: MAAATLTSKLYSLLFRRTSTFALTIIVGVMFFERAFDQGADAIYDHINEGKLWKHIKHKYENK
UniProt Q8NBZ7: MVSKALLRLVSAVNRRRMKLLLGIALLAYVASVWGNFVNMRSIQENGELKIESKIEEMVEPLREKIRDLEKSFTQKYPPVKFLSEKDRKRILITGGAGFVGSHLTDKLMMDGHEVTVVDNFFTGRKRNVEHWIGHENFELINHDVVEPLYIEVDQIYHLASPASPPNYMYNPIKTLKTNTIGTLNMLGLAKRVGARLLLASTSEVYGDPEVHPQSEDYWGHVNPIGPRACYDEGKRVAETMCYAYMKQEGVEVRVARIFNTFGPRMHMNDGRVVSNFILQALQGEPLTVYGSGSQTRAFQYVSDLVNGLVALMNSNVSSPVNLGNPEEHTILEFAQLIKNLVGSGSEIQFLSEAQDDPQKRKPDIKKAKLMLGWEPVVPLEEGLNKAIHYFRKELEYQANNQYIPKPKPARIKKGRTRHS
UniProt P63027, whole entry, looked up: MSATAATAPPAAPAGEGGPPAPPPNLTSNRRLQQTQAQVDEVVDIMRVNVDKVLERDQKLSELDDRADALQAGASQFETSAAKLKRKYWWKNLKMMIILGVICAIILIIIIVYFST
UniProt P11441: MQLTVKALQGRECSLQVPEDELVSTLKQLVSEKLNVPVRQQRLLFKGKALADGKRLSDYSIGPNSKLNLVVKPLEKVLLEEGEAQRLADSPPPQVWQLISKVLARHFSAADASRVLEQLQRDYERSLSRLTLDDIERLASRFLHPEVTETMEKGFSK
UniProt O95155, whole entry, looked up: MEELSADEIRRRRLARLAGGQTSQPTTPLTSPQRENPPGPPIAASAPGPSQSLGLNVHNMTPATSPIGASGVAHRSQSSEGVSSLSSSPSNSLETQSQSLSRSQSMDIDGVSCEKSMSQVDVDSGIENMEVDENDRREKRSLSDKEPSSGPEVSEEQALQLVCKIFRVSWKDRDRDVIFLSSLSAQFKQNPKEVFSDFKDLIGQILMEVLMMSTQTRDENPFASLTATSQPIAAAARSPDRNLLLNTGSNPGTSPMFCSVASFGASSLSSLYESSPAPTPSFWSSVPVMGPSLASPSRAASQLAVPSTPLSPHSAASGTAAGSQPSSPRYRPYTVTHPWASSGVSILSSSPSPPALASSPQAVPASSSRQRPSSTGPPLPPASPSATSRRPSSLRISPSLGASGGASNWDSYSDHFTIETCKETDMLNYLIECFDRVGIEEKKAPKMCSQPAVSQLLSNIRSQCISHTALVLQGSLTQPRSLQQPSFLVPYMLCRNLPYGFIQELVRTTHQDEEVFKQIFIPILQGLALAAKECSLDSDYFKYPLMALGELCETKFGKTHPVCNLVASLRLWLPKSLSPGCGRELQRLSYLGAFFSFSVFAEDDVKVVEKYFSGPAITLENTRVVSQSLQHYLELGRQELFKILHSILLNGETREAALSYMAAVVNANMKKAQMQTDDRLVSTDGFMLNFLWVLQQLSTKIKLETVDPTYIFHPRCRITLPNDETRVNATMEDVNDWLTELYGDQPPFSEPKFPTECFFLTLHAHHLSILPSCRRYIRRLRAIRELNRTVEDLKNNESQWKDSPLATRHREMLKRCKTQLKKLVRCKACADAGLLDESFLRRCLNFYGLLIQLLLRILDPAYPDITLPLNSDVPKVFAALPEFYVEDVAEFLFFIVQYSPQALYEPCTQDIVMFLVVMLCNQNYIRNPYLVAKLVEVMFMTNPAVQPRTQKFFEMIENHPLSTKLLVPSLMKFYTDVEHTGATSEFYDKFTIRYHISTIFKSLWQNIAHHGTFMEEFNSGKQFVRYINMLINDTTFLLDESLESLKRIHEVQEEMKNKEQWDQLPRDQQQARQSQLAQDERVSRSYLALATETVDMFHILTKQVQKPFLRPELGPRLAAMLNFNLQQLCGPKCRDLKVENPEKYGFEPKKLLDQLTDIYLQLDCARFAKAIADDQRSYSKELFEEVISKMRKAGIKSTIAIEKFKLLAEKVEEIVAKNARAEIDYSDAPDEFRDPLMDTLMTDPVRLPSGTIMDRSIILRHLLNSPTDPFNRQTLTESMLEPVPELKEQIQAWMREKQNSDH
UniProt P07919: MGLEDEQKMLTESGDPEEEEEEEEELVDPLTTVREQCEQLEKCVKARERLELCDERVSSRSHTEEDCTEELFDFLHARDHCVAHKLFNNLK
UniProt Q9BZI7: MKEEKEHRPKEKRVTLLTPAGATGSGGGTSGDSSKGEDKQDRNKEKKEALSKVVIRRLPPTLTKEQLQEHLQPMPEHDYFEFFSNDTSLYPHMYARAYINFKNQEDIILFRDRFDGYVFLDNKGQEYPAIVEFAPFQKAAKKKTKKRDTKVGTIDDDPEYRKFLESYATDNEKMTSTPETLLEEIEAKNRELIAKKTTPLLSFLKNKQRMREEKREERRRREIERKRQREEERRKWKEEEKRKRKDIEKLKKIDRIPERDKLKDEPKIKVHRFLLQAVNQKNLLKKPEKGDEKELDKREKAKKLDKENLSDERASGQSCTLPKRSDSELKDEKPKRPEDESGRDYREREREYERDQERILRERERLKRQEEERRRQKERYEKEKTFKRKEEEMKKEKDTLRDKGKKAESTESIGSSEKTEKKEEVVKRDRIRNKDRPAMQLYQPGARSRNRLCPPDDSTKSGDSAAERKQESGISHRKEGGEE
UniProt Q9BZX2: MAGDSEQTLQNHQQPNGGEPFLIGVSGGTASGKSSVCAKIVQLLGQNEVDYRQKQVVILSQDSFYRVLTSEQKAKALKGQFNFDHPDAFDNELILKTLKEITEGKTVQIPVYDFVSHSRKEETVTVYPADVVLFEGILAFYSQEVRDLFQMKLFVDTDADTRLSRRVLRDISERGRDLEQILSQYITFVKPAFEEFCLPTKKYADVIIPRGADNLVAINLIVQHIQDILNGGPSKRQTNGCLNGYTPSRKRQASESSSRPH
UniProt Q8N806: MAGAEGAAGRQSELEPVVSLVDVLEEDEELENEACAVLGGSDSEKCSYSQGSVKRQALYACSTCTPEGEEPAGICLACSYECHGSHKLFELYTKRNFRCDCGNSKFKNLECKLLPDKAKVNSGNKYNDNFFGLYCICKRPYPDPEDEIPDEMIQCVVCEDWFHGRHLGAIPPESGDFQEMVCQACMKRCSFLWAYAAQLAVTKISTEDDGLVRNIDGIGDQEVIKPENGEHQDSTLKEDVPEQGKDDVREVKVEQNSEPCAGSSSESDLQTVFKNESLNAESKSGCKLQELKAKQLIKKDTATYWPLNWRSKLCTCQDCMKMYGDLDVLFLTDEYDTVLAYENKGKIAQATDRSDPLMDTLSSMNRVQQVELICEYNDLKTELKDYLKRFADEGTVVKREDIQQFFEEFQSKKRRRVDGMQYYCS
UniProt P61758, whole entry, looked up: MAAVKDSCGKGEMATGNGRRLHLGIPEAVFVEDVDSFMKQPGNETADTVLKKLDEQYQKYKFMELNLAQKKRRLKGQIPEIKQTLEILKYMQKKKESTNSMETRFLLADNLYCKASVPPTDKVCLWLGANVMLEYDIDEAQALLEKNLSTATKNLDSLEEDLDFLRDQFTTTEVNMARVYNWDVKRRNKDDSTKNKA
UniProt Q9NWZ5: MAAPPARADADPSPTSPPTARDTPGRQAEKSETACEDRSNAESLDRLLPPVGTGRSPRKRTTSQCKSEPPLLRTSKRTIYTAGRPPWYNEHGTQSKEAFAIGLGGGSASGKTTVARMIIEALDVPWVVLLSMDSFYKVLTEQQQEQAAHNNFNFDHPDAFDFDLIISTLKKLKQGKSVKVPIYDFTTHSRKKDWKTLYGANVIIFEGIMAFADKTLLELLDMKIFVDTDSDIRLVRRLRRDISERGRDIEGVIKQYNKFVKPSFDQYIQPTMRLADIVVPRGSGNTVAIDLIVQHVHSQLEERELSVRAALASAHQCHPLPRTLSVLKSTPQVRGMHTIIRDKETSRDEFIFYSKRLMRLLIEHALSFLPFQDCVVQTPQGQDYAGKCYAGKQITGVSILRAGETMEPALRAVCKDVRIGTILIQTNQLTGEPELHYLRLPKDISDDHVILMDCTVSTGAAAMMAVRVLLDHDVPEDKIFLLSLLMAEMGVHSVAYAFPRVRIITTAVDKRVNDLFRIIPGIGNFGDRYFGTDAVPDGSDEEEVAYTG
UniProt O14949: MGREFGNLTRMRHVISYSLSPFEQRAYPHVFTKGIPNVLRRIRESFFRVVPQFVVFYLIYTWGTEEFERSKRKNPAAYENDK

What was measured:
Assay in all cases: log2 fold change, soluble protein after heating vs DMSO (PISA); higher = thermal stabilisation; K562 cells, 10 uM, 30 min; active = over 0.2 and 3.5 SD of the protein, either way, in both replicates (recomputed)
[1] = compound: CC1=C(C=C(C=C1)NC(=O)C2=CC(=CC=C2)C(C)(C)C#N)NC3=CC4=C(C=C3)N=CN(C4=O)C
Method in brief: (§1)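 K562 cells at 2×10^6 cells/mL were exposed to 10 μM compound for 30 min, then aliquots were heated for 3 min across 48°C-58°C, pooled, and extracted in PBS containing 0.5% NP-40 at 4°C. The supernatant after 21,000xg for 90 min was taken as soluble protein and measured by TMTpro 16plex LC-MS/MS with channel sums equalised. Thermal stability is reported relative to control samples, with values from duplicates. Fold changes are given on a log2 scale.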

[2] = compound: CC1=C(C=C(C=C1)NC(=O)C2=CC(=CC=C2)N(C)C)NC(=O)C3=CC=C(C=C3)O
Method in brief: as §1

[3] = compound: CC1=CC=C(C=C1)SC2=C3C=C(SC3=CN=C2)C(=O)N
Method in brief: as §1

[4] = compound: CC1=NC(=CC=C1)C2=C(N=C(N2)C(C)(C)C)C3=CC4=NC=CN=C4C=C3
Method in brief: as §1

Nexturastat A = compound: CCCCN(Cc1ccc(C(=O)NO)cc1)C(=O)Nc1ccccc1 [Nexturastat A]
Method in brief: as §1

vemurafenib = compound: CCCS(=O)(=O)Nc1ccc(F)c(C(=O)c2c[nH]c3ncc(-c4ccc(Cl)cc4)cc23)c1F [vemurafenib]
Method in brief: as §1

[5] = compound: CCCS(=O)(=O)Nc1ccc(F)c(C(=O)c2c[nH]c3ncc(Cl)cc23)c1F
Method in brief: as §1

[6] = compound: CCCc1cc(C)[nH]c(=O)c1CNC(=O)c1cc(-c2ccnc(N3CCN(C)CC3)c2)cc2c1cnn2C(C)C
Method in brief: as §1

givinostat = compound: CCN(CC)Cc1ccc2cc(COC(=O)Nc3ccc(C(=O)NO)cc3)ccc2c1 [givinostat]
Method in brief: as §1

barasertib = compound: CCN(CCCOc1ccc2c(Nc3cc(CC(=O)Nc4cccc(F)c4)[nH]n3)ncnc2c1)CCOP(=O)(O)O [barasertib]
Method in brief: as §1

Target | log2 fold change [1] | log2 fold change [2] | log2 fold change [3] | log2 fold change [4] | log2 fold change (Nexturastat A) | log2 fold change (vemurafenib) | log2 fold change [5] | log2 fold change [6] | log2 fold change (givinostat) | log2 fold change (barasertib)
UBE3C (UniProt Q15386) | inactive: 0.028 | inactive: -0.008 | inactive: 0.021 | inactive: -0.016 | inactive: 0.035 | inactive: -0.033 | inactive: 0.062 | inactive: 0.011 | inactive: 0.039 | inactive: 0.009
UPF2 (UniProt Q9HAU5) | inactive: 0.017 | inactive: -0.042 | inactive: -0.052 | inactive: -0.105 | inactive: 0.145 | inactive: -0.044 | inactive: -0.054 | inactive: 0.146 | inactive: 0.029 | inactive: -0.064
UQCR10 (UniProt Q9UDW1) | inactive: 0.103 | inactive: -0.086 | inactive: 0.069 | inactive: -0.014 | inactive: -0.049 | inactive: -0.042 | inactive: -0.018 | inactive: 0.007 | inactive: -0.05 | inactive: -0.042
UXS1 isoform 2 (UniProt Q8NBZ7) | inactive: -0.018 | inactive: 0.179 | inactive: -0.042 | inactive: -0.009 | inactive: 0.088 | inactive: 0.018 | inactive: -0.025 | inactive: 0.013 | inactive: -0.004 | inactive: -0.003
UHRF1BP1 (UniProt Q6BDS2) | inactive: -0.068 | inactive: -0.039 | inactive: -0.012 | inactive: -0.011 | inactive: 0.043 | inactive: -0.035 | inactive: -0.043 | inactive: -0.022 | inactive: -0.012 | inactive: -0.009
UGCG (UniProt Q16739) | inactive: -0.169 | inactive: -0.314 | inactive: 0.002 | inactive: -0.039 | inactive: 0.13 | inactive: -0.048 | inactive: -0.226 | inactive: -0.02 | inactive: 0.059 | inactive: -0.049
USP47 (UniProt Q96K76) | inactive: 0.005 | inactive: -0.057 | inactive: 0.041 | inactive: -0.023 | inactive: 0.078 | inactive: -0.007 | inactive: 0.071 | inactive: 0.051 | inactive: 0.125 | inactive: 0.007
UBLCP1 (UniProt Q8WVY7) | inactive: -0.011 | inactive: -0.078 | inactive: -0.03 | inactive: 0.03 | inactive: 0.025 | inactive: 0.076 | inactive: 0.093 | inactive: -0.006 | inactive: 0.122 | inactive: 0.057
UCK1 (UniProt Q9HA47) | inactive: 0.038 | inactive: -0.108 | inactive: 0.026 | inactive: 0.003 | inactive: -0.05 | inactive: -0.05 | inactive: 0.013 | inactive: 0.152 | inactive: -0.067 | inactive: -0.006
UXT isoform 2 (UniProt Q9UBK9) | inactive: 0.008 | inactive: 0.003 | inactive: 0.039 | inactive: -0.074 | active: 0.904 | inactive: -0.023 | inactive: -0.013 | inactive: 0.041 | inactive: 0.211 | inactive: 0.022
UTP3 (UniProt Q9NQZ2) | inactive: -0.016 | inactive: 0.008 | inactive: -0.094 | inactive: -0.048 | inactive: 0.308 | inactive: 0.004 | inactive: 0.022 | inactive: 0.101 | inactive: 0.075 | inactive: -0.08
VAMP2 (UniProt P63027) | inactive: 0.064 | inactive: -0.039 | inactive: 0.042 | inactive: 0.112 | inactive: -0.072 | inactive: 0.167 | inactive: 0.055 | inactive: 0.187 | inactive: 0.034 | inactive: 0.004
UBL4A (UniProt P11441) | inactive: 0.058 | inactive: -0.021 | inactive: 0.016 | inactive: 0.021 | inactive: -0.023 | inactive: 0.095 | inactive: 0.078 | inactive: -0.01 | inactive: -0.02 | inactive: 0.04
URI1 (UniProt O94763) | inactive: 0.023 | inactive: 0.062 | inactive: -0.041 | inactive: 0.021 | inactive: -0.026 | inactive: 0.035 | inactive: -0.073 | inactive: -0.028 | inactive: 0.017 | inactive: -0.003
UBE4B isoform 4 (UniProt O95155) | inactive: 0.007 | inactive: -0.012 | inactive: 0.001 | inactive: 0.014 | inactive: -0.017 | inactive: 0.024 | inactive: 0.045 | inactive: -0.008 | inactive: 0.008 | inactive: 0.042
UQCRH (UniProt P07919) | inactive: -0.048 | inactive: -0.027 | inactive: 0.29 | inactive: -0.062 | inactive: -0.021 | inactive: -0.083 | inactive: -0.161 | inactive: -0.092 | inactive: -0.015 | inactive: 0.012
UVRAG (UniProt Q9P2Y5) | inactive: -0.024 | inactive: 0.01 | inactive: 0.001 | inactive: -0.03 | inactive: 0.011 | inactive: -0.066 | inactive: 0.053 | inactive: -0.039 | inactive: -0.01 | inactive: -0.075
UPF3B (UniProt Q9BZI7) | inactive: -0.047 | inactive: -0.004 | inactive: 0 | inactive: -0.053 | inactive: 0.29 | inactive: -0.108 | inactive: -0.069 | inactive: 0.139 | inactive: 0.03 | inactive: -0.058
UCK2 (UniProt Q9BZX2) | inactive: 0.017 | inactive: 0.045 | inactive: -0.006 | inactive: 0.016 | inactive: 0 | inactive: 0.016 | inactive: 0.005 | inactive: -0.011 | inactive: 0.032 | inactive: 0.031
UBR7 (UniProt Q8N806) | inactive: -0.037 | inactive: -0.003 | inactive: 0 | inactive: 0.023 | inactive: -0.073 | inactive: 0.032 | inactive: -0.002 | inactive: -0.024 | inactive: -0.033 | inactive: 0.026
UFSP2 (UniProt Q9NUQ7) | inactive: 0.006 | inactive: -0.043 | inactive: -0.028 | inactive: -0.023 | inactive: 0.031 | inactive: 0.069 | inactive: 0.026 | inactive: 0.039 | inactive: 0.046 | inactive: 0.009
VBP1 (UniProt P61758) | inactive: -0.035 | inactive: 0.035 | inactive: 0.014 | inactive: -0.003 | inactive: -0.082 | inactive: -0.019 | inactive: -0.011 | inactive: -0.017 | inactive: -0.014 | inactive: 0.008
USP24 (UniProt Q9UPU5) | inactive: 0.114 | inactive: -0.026 | inactive: 0 | inactive: 0.012 | inactive: -0.047 | inactive: 0 | inactive: 0.052 | inactive: -0.042 | inactive: 0.011 | inactive: -0.053
UCKL1 (UniProt Q9NWZ5) | inactive: 0.088 | inactive: 0.001 | inactive: -0.031 | inactive: 0.022 | inactive: -0.046 | inactive: 0.006 | inactive: -0.011 | inactive: -0.081 | inactive: 0.002 | inactive: 0.045
USP15 (UniProt Q9Y4E8) | inactive: 0.025 | inactive: -0.044 | inactive: 0.023 | inactive: 0.027 | inactive: -0.001 | inactive: 0.04 | inactive: 0.053 | inactive: 0.041 | inactive: 0.025 | inactive: 0.06
VARS2, A0A0G2JL52 | inactive: -0.003 | inactive: 0.005 | inactive: -0.025 | inactive: 0.012 | inactive: 0.005 | inactive: 0.03 | inactive: 0.047 | inactive: -0.018 | inactive: -0.015 | inactive: 0.052
VASP (UniProt P50552) | inactive: -0.083 | inactive: -0.044 | inactive: 0.012 | inactive: -0.035 | inactive: 0.123 | inactive: 0.058 | inactive: 0.017 | inactive: 0.062 | inactive: 0.179 | inactive: 0.115
VAPB (UniProt O95292) | inactive: 0.047 | inactive: -0.017 | inactive: 0.007 | inactive: 0.013 | inactive: -0.096 | inactive: 0.008 | inactive: -0.029 | inactive: -0.023 | inactive: 0.005 | inactive: 0.004
UQCRQ (UniProt O14949) | inactive: -0.002 | inactive: -0.015 | inactive: 0.018 | inactive: 0.004 | inactive: 0.022 | inactive: -0.007 | inactive: -0.014 | inactive: -0.03 | inactive: -0.045 | inactive: 0.013
USP8 (UniProt P40818) | inactive: -0.014 | inactive: 0.03 | inactive: 0.054 | inactive: -0.016 | inactive: 0.212 | inactive: 0.086 | inactive: 0.086 | inactive: 0.136 | inactive: 0.142 | inactive: 0.039

Reformatted in CSV form: entries from further up
Target,log2 fold change [1],log2 fold change [2],log2 fold change [3],log2 fold change [4],log2 fold change (Nexturastat A),log2 fold change (vemurafenib),log2 fold change [5],log2 fold change [6],log2 fold change (givinostat),log2 fold change (barasertib)
UCKL1 (UniProt Q9NWZ5),inactive: 0.088,inactive: 0.001,inactive: -0.031,inactive: 0.022,inactive: -0.046,inactive: 0.006,inactive: -0.011,inactive: -0.081,inactive: 0.002,inactive: 0.045
USP15 (UniProt Q9Y4E8),inactive: 0.025,inactive: -0.044,inactive: 0.023,inactive: 0.027,inactive: -0.001,inactive: 0.04,inactive: 0.053,inactive: 0.041,inactive: 0.025,inactive: 0.06
"VARS2, A0A0G2JL52",inactive: -0.003,inactive: 0.005,inactive: -0.025,inactive: 0.012,inactive: 0.005,inactive: 0.03,inactive: 0.047,inactive: -0.018,inactive: -0.015,inactive: 0.052
VASP (UniProt P50552),inactive: -0.083,inactive: -0.044,inactive: 0.012,inactive: -0.035,inactive: 0.123,inactive: 0.058,inactive: 0.017,inactive: 0.062,inactive: 0.179,inactive: 0.115
VAPB (UniProt O95292),inactive: 0.047,inactive: -0.017,inactive: 0.007,inactive: 0.013,inactive: -0.096,inactive: 0.008,inactive: -0.029,inactive: -0.023,inactive: 0.005,inactive: 0.004
UQCRQ (UniProt O14949),inactive: -0.002,inactive: -0.015,inactive: 0.018,inactive: 0.004,inactive: 0.022,inactive: -0.007,inactive: -0.014,inactive: -0.03,inactive: -0.045,inactive: 0.013
